Results deposited as PubChem BioAssay AID1671195 (Yale University, 2021).
Purpose: 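Knockdowns that increase or decrease uptake of fluorescent LDL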 (primary screen). System: human Huh7 hepatoma cells. Knock-down reagent: siRNA pool against human genes, 18 nM. Time to read-out: about 2 to 2.5 days of knockdown, then 8 h LDL uptake. Conditions: DiI-labelled LDL at 30 µg/ml for 8 h, in lipoprotein-deficient serum medium. Read-out: 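Fluorescent LDL signal imaged in cells, scaled to the plate median, robust z-score for each replicate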. Reading the numbers: robust z-score: higher = more LDL uptake after knockdown. Rule for the call: 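a gene counts as active if at least two replicate z-scores exceed ±2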.
In all, the deposit lists about 22,000 reagents; this is an unselected part. In the full data, about 1,510 (6.9%) were called active. 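Active includes knockdowns raising or lowering LDL uptake; positive z-scores mean more uptake, negative mean less.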 Unmarked entries are inactive. Reagents against one gene are numbered here. Reagent sequences are not shown.

no.	target gene	pool no.	robust z-score, replicate 1	robust z-score, replicate 2	robust z-score, replicate 3
1	IFNE	1	-0.431	-0.45	-0.342
2	LOC442022 (retired record)	1	-1.4	-1.25	-1.42
3	MTHFD2	1	-0.887	-0.832	-0.905
4	AGTR1	1	2.01	0.412	1.22
5	PPP1R16B	1	-0.22	-0.308	0.0399
6	CDKL4	1	0.346	-0.909	-0.161
7	PCNX3	1	-1.23	-1.61	-1.52
8	NCAPH2	1	-0.668	-0.672	-2.43
9	ACOX2	1	-0.513	-0.121	-0.00753
10	MTHFD1L	1	0.108	-0.4	0.172
11	ULK1	1	3.62 (active)	5.23	2.46
12	TAS2R4	1	-0.285	-1.25	0.111
13	GALR1	1	-0.375	-1.21	-1.21
14	EIF4HP1	1	-0.849	-0.907	-0.985
15	LOC391553 (retired record)	1	-0.817	-1.09	-1.28
16	PDE12	1	-0.857	-0.868	-0.8
17	MECOM	1	-0.68	-0.566	-0.582
18	MECOM	2	-1.31	-0.93	-1.12
19	CNN2	1	-1.28	-0.707	-0.816
20	INHBE	1	-0.676	-0.51	-0.342
21	XTBD1P1	1	-0.821	-0.859	-0.873
22	RPS13	1	-1.1	-2.28	-0.171
23	KRT38	1	-0.422	-1.24	-0.83
24	CFI	1	-0.628	-0.907	-0.838

A run of entries of the results above:
no.	target gene	pool no.	robust z-score, replicate 1	robust z-score, replicate 2	robust z-score, replicate 3
10	MTHFD1L	1	0.108	-0.4	0.172
11	ULK1	1	3.62 (active)	5.23	2.46

More reagents follow:
no.	target gene	pool no.	robust z-score, replicate 1	robust z-score, replicate 2	robust z-score, replicate 3
25	NLGN4X	1	-0.131	-0.748	0.89
26	BICD1	1	-0.573	-1.16	1.22
27	CCDC24	1	-0.0578	0.985	-0.25
28	SIGLEC6	1	1.14	1.2	2.97
29	CHMP1B	1	0.275	-0.112	-0.466
30	WFIKKN1	1	-0.176	-1.1	-1.31
31	ANKFN1	1	-0.00297	-1.39	-1
32	TNFSF8	1	2.63	0.31	1.95
33	LOC388295 (retired record)	1	-0.7	-0.965	-0.915
34	CLIC6	1	-0.0192	0.345	0.367
35	ASMTL	1	-1.07	-0.545	-1.3
36	PIK3R2	1	-0.777	-1.99	-1.4
37	RNASEK	1	-0.982	-1.13	-0.829
38	LOC126537 (retired record)	1	-0.899	-1.87	-1.73
39	FZD10-AS1	1	0.0874	-0.467	-0.454
40	FLYWCH1	1	-1.02	-1.39	-2.1
41	LOC441998 (retired record)	1	1.08	0.82	1.05
42	MAX	1	-1.37	-1.55	-1.51
43	PAWR	1	-0.28	-0.815	0.253
44	DIO1	1	2.29	0.343	0.489
45	OR8U3	1	-0.783	-0.493	-0.438
46	LOC401058 (retired record)	1	0.0503	-0.176	-0.285
